PubChem BioAssay AID652272 – Drosophila RNAi Screening Center, 2013

Aim: 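Finding fly genes that regulate Hedgehog signal transduction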 (primary screen)
System: Drosophila clone 8 (Cl8) cells
Knock-down reagent: long dsRNA against Drosophila genes
Measurement: 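Plate reader light from a firefly reporter under a ptc promoter fragment that responds to Hedgehog, with Renilla light as transfection reference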
Direction: firefly Hh reporter signal: higher = more ptc reporter light; Renilla reference signal: higher = more Renilla control light
Hit rule: 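Hit when the z-score averaged over two replicates is under -2 or over +3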
Calls: active = hit: reporter lowered or raised; inactive = not a hit
The screen tested about 21,000 reagents; shown is a random part of those that have a named target and a result. In the full data, 503 (2.4%) were called active. 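Raw plate light values, not normalised; calls rest on replicate z-scores that were not deposited; hits include reporter decreases as well as increases.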 A plus sign joins genes that one reagent is predicted to hit. The record does not give: the amount of reagent, the time to read-out.

predicted target | amplicon | firefly Hh reporter signal, replicate 1 | firefly Hh reporter signal, replicate 2 | firefly Hh reporter signal, replicate 3 | Renilla reference signal, replicate 1 | Renilla reference signal, replicate 2 | activity call
CG14647 | DRSC12233 | 1.56e5 | 1.01e5 | – | 6011 | 4592 | inactive
CG32302 | DRSC08340 | 49232 | 45357 | – | 1812 | 3464 | inactive
Wwox (WW domain containing oxidoreductase) | DRSC03030 | 2.08e5 | 1.04e5 | – | 7665 | 4917 | inactive
MTPAP (mitochondrial poly(A) polymerase) | DRSC18585 | 91561 | 2.56e5 | – | 2918 | 8948 | inactive
Tap42 (Two A-associated protein of 42kDa) | DRSC02967 | 1.02e5 | 41845 | – | 2714 | 3894 | inactive
Septin1 (Septin 1) | DRSC20573 | 99128 | 2.90e5 | – | 2003 | 10889 | inactive
CG31550 | DRSC12197 | 65223 | 1.13e5 | – | 2577 | 2896 | inactive
CG31550 | DRSC12198 | 1.30e5 | 1.13e5 | – | 5177 | 4250 | inactive
Cpr47Ec (Cuticular protein 47Ec) | DRSC07332 | 1.12e5 | 48566 | – | 2913 | 4336 | inactive
VhaM9.7-b (Vacuolar H[+] ATPase M9.7 subunit b) | DRSC11841 | 82213 | 63973 | – | 2137 | 1764 | inactive
JMJD5 (Jumonji domain containing 5) | DRSC08372 | 85392 | 68027 | – | 2613 | 5072 | inactive
can (cannonball) | DRSC10664 | 4.60e5 | 62198 | – | 2368 | 2368 | inactive
CG15005 | DRSC08459 | 1.29e5 | 66492 | – | 3622 | 5268 | inactive
Gr77a (Gustatory receptor 77a) | DRSC11446 | 2.19e5 | – | – | 4819 | – | inactive
stj (straightjacket) | DRSC06124 | 93302 | 79693 | – | 4752 | 3586 | inactive
rin (rasputin) | DRSC17045 | 43802 | 53708 | – | 1685 | 1845 | inactive
CG17287 | DRSC06659 | 72856 | 43462 | – | 1933 | 3224 | inactive
grnd (grindelwald) | DRSC02020 | 1.55e5 | 49092 | – | 3369 | 3227 | inactive
PGRP-LD + Pmi | DRSC10512 | 1.09e5 | 1.05e5 | – | 4358 | 4773 | inactive
PGRP-LD + Pmi | DRSC10513 | 83216 | 90377 | – | 8521 | 6326 | inactive
CG16894 | DRSC06634 | 1.57e5 | 1.02e6 | 81169 | 4453 | 57462 | inactive
sw + Sdic4 + Sdic3 + 2 more | DRSC20696 | 1.02e5 | 3.42e5 | – | 3395 | 12491 | inactive
CG10038 | DRSC14178 | 1.39e5 | 1.02e5 | – | 5697 | 4225 | inactive
